Results from the supplement of paper PMC10849652.
Some of the results follow.

Sequences of proteins named here, by UniProt entry; tags and fusion partners are left off. A change or cut given only in a name is not applied to a line headed by its entry.
UniProt O14593: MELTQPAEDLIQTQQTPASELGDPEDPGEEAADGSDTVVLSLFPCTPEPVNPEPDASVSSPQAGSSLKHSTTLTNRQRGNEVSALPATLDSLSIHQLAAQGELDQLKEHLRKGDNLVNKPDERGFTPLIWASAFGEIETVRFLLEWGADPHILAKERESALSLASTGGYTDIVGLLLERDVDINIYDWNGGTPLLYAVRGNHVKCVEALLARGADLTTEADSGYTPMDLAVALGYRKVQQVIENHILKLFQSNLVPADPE
UniProt O94761: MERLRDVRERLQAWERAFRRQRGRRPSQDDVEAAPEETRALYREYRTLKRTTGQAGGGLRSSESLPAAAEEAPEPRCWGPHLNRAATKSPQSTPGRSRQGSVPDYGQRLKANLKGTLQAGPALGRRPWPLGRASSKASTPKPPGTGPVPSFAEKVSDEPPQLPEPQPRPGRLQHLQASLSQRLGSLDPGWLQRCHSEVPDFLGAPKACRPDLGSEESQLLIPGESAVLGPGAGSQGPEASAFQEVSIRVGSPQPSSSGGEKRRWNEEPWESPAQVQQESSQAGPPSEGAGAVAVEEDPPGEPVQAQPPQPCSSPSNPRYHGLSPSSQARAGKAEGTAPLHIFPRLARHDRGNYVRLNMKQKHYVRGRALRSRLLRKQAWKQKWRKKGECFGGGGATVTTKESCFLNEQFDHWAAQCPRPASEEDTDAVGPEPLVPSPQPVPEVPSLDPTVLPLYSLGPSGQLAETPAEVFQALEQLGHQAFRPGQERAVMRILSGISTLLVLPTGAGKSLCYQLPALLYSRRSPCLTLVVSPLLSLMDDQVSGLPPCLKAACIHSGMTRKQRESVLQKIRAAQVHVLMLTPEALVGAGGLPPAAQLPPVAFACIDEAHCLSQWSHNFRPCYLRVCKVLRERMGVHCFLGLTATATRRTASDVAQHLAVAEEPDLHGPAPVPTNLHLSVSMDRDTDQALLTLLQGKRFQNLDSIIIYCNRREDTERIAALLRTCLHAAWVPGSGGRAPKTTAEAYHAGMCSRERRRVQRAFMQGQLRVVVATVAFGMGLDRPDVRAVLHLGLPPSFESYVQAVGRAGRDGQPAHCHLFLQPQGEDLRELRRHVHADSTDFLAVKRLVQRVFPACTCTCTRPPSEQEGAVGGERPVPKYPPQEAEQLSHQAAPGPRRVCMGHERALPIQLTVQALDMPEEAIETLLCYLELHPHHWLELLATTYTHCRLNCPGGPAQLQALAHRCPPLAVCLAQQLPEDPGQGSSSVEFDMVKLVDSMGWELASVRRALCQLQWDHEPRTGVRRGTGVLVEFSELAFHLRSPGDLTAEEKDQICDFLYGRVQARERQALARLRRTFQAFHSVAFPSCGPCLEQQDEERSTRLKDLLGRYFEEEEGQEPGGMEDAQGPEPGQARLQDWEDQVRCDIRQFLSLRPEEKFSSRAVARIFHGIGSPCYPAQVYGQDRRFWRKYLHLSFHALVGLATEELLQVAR
UniProt P52756, whole entry, looked up: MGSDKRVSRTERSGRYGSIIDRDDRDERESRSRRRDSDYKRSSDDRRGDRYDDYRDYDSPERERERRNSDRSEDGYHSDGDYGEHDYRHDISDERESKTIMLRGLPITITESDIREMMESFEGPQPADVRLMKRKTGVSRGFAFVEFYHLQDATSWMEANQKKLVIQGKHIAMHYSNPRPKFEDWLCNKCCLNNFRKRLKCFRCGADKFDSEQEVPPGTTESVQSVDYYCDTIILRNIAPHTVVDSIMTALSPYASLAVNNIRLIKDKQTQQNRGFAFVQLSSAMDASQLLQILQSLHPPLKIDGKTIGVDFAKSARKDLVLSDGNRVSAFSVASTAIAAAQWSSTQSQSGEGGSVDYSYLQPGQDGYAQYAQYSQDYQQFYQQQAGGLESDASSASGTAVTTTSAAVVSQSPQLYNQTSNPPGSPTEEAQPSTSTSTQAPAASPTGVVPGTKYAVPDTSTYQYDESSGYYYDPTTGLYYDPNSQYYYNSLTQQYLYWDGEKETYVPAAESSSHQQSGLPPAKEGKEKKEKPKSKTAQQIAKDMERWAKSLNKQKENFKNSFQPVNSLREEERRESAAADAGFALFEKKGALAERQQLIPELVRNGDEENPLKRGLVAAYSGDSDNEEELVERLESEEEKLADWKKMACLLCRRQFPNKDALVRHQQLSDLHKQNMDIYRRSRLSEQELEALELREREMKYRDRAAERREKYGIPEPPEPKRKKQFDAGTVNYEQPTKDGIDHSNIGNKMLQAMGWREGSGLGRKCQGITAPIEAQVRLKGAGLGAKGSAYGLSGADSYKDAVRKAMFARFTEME
UniProt Q96AA3: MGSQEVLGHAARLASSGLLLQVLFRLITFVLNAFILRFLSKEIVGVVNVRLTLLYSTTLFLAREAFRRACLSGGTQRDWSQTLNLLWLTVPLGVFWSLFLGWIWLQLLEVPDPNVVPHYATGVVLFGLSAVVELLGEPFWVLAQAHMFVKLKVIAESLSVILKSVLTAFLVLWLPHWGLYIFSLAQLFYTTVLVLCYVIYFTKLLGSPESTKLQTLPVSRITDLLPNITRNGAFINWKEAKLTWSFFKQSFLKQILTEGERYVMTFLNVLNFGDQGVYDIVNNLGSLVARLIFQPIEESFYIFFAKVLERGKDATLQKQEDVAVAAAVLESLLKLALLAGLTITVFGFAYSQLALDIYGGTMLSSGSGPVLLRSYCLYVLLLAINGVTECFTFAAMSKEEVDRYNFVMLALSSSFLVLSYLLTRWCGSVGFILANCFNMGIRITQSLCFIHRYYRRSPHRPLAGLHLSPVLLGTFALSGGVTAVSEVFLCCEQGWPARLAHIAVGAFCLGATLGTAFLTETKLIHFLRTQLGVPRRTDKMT
UniProt Q99666, whole entry, looked up: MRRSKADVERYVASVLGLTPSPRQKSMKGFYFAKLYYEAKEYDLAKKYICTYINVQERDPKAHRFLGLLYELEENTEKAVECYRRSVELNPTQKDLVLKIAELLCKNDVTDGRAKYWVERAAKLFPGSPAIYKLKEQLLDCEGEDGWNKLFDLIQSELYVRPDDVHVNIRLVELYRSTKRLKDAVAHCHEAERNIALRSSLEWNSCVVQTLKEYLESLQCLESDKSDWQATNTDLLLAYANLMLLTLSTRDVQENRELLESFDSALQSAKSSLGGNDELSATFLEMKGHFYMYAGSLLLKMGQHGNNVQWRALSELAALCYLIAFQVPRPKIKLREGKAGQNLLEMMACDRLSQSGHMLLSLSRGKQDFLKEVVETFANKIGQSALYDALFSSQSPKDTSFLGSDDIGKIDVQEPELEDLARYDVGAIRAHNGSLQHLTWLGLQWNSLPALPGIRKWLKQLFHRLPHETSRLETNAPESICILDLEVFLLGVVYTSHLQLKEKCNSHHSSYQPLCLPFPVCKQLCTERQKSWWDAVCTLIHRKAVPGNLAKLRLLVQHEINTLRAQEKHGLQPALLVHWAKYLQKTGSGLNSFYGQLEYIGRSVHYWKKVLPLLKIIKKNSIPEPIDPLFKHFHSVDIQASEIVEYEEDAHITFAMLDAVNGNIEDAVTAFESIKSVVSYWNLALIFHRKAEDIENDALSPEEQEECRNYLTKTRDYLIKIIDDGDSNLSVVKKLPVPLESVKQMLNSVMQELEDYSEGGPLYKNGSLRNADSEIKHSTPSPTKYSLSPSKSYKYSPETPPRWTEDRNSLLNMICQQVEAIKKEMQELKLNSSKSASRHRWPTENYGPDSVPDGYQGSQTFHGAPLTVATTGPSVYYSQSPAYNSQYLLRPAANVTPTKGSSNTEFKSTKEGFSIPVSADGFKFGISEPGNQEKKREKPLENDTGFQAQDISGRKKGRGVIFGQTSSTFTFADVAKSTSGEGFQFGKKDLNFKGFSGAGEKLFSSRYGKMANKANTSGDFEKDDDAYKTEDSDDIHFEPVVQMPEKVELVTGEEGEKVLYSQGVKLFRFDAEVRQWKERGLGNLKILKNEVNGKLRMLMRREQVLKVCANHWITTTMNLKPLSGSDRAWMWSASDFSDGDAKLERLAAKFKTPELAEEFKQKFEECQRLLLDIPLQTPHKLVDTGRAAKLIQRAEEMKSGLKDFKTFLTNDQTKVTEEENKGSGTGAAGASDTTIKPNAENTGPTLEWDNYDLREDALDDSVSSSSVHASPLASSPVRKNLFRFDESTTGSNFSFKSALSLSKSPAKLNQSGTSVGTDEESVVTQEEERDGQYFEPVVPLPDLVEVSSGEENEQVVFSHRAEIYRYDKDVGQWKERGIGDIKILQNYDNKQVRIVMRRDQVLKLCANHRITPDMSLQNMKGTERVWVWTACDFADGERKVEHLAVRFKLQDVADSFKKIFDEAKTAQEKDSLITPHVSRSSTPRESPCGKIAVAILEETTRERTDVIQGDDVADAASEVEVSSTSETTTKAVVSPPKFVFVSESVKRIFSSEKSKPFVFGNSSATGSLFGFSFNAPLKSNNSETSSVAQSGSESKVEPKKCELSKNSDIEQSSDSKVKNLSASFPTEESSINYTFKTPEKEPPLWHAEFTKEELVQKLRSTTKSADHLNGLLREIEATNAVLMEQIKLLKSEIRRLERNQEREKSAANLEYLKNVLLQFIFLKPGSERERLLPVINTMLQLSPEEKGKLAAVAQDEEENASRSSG
UniProt P62877, whole entry, looked up: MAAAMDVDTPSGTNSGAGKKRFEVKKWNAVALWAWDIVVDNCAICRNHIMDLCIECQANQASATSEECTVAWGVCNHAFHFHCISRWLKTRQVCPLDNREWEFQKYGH
UniProt Q14257: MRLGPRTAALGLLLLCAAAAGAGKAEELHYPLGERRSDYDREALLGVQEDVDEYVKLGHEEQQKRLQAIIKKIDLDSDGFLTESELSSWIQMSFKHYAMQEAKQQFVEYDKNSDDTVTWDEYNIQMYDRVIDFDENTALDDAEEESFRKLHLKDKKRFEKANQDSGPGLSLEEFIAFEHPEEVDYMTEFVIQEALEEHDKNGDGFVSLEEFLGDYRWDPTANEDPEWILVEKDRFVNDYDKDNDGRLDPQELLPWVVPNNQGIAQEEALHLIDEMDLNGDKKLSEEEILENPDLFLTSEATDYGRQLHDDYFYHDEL
UniProt Q9P2R6: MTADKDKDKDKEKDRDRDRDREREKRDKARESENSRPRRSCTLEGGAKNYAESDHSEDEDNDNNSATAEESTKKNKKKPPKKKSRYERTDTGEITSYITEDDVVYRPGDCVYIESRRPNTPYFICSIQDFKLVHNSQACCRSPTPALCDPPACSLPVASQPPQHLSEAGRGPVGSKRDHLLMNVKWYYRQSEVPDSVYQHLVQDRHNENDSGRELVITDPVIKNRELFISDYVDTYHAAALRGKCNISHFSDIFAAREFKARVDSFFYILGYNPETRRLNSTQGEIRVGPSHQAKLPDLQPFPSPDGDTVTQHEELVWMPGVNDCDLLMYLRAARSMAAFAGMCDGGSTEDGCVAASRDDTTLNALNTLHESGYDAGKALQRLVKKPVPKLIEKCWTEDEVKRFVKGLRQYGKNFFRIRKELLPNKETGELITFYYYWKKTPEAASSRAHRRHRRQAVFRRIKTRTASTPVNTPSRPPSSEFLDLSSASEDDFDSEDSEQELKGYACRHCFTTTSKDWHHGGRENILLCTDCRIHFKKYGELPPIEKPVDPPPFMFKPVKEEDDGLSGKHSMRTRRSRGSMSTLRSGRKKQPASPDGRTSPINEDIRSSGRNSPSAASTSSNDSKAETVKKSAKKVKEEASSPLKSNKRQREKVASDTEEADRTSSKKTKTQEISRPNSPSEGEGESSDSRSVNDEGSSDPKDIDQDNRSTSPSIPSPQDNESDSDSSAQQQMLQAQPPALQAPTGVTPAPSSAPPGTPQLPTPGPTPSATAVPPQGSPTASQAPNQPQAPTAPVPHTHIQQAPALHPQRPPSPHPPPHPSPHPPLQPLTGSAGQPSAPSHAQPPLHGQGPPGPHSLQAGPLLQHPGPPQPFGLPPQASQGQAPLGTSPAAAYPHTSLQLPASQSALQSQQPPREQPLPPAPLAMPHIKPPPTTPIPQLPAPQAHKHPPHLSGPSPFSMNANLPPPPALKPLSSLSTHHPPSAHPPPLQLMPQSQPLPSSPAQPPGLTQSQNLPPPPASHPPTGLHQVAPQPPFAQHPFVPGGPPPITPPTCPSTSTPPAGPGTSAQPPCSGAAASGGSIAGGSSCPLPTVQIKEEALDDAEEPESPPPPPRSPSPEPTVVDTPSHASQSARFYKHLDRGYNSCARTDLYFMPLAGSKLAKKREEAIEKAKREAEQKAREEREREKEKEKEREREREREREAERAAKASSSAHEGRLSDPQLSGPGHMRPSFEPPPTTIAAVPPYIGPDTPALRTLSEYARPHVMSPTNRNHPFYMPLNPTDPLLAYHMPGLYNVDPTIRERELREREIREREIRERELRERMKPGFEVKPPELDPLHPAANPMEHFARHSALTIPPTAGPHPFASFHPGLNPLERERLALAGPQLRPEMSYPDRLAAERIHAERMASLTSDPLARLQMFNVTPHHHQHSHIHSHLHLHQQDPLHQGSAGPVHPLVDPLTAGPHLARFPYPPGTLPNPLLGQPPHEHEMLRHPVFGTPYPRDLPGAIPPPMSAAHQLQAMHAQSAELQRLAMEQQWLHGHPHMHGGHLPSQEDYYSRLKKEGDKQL

What was measured:
Experiment in all cases: log2 fold change, soluble protein after heating vs DMSO (PISA); higher = thermal stabilisation; K562 lysate, 10 uM; active = over 0.2 and 3.5 SD of the protein, either way, in both replicates (recomputed)
erlotinib = compound: C#Cc1cccc(Nc2ncnc3cc(OCCOC)c(OCCOC)cc23)c1 [erlotinib]
How it was run: (§1)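 Following dounce homogenisation of K562 pellets in PBS pH 7.4 with 1 mM MgCl2, crude extract at 1 mg/mL protein was incubated for 30 min with 10 μM compound. Aliquots were then heated for 3 min over 48°C-58°C and pooled, NP-40 was added to 0.5% at 4°C, and soluble protein was recovered as the supernatant at 21,000xg for 90 min. Channel-sum-equalised TMTpro 16plex LC-MS/MS quantified this protein. Each value, from duplicates, is a log-two fold change in thermal stability relative to solvent controls.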

[1] = compound: C/C(=N\NC(=O)C1=CC(=CC=C1)S(=O)(=O)N2CCOCC2)/C3=C(C=CC(=C3)Cl)O
How it was run: as §1

[2] = compound: C1=CC(=CC=C1C2=NC3=C(N2)C=C(C=C3)C(=O)N)OC4=CC=C(C=C4)Cl
How it was run: as §1

[3] = compound: C1=CC2=C(C=CC(=C2)/C=C\3/C(=O)NC(=NCC4=CC=CS4)S3)N=C1
How it was run: as §1

[4] = compound: C1=CC2=NC=CN=C2C=C1/C=C/3\C(=O)NC(=O)S3
How it was run: as §1

[5] = compound: C1=CC=C(C=C1)C2=NC(=C(N2)C3=CC=NC=C3)C4=CC(=C(C=C4)Cl)O
How it was run: as §1

[6] = compound: C1=CC=C2C(=C1)C3=NNC4=CC=CC(=C43)C2=O
How it was run: as §1

[7] = compound: C1CCN(C1)C(=O)NC2=CC=CC(=C2)NC3=NC=C(C(=N3)NCCC4=CN=CN4)Br
How it was run: as §1

[8] = compound: C1CN(CCC1(CC2=CC=C(C=C2)Cl)N)C3=NC=NC4=C3C=CN4
How it was run: as §1

IRAK-1-4 Inhibitor I = compound: C1COCCN1CCN2C3=CC=CC=C3N=C2NC(=O)C4=CC(=CC=C4)[N+](=O)[O-] [IRAK-1-4 Inhibitor I]
How it was run: as §1

Target	log2 fold change (erlotinib)	log2 fold change [1]	log2 fold change [2]	log2 fold change [3]	log2 fold change [4]	log2 fold change [5]	log2 fold change [6]	log2 fold change [7]	log2 fold change [8]	log2 fold change (IRAK-1-4 Inhibitor I)
RARS (UniProt P54136)	inactive: 0.037	inactive: 0.029	inactive: -0.023	inactive: 0.023	inactive: 0.043	inactive: 0.029	inactive: -0.025	inactive: -0.005	inactive: 0.005	inactive: 0.008
RCL1 (UniProt Q9Y2P8)	inactive: 0	inactive: -0.034	inactive: -0.075	inactive: 0.07	inactive: 0.054	inactive: 0.021	inactive: -0.033	inactive: 0	inactive: -0.007	inactive: 0.008
RCSD1 (UniProt Q6JBY9)	inactive: -0.005	inactive: -0.024	inactive: 0.04	inactive: -0.035	inactive: -0.024	inactive: 0.027	inactive: 0.02	inactive: -0.002	inactive: 0.002	inactive: 0.007
RHEB (UniProt Q15382)	inactive: -0.009	inactive: -0.073	inactive: -0.037	inactive: 0.035	inactive: 0	inactive: -0.012	inactive: 0.029	inactive: -0.02	inactive: -0.075	inactive: -0.032
RBBP7 isoform 2 (UniProt Q16576)	inactive: -0.036	inactive: 0.046	inactive: -0.036	inactive: -0.03	inactive: -0.013	inactive: -0.002	inactive: 0.055	inactive: 0.041	inactive: -0.026	inactive: -0.006
RCC1L (UniProt Q96I51)	inactive: -0.047	inactive: -0.085	inactive: 0.003	inactive: -0.159	inactive: 0.057	inactive: -0.015	inactive: -0.015	inactive: 0.039	inactive: -0.088	inactive: -0.05
RBBP8 isoform 2 (UniProt Q99708)	inactive: 0.073	inactive: -0.129	inactive: -0.031	inactive: 0.074	active: 0.295	inactive: -0.004	inactive: -0.019	inactive: -0.017	inactive: -0.032	inactive: 0.033
RBM10 isoform 5 (UniProt P98175)	inactive: -0.018	inactive: -0.036	inactive: 0.005	inactive: -0.009	inactive: -0.068	inactive: 0.033	inactive: -0.018	inactive: -0.023	inactive: -0.02	inactive: 0.003
RBM34 (UniProt P42696)	inactive: -0.02	inactive: -0.142	inactive: -0.053	inactive: 0.044	inactive: 0.008	inactive: 0.012	inactive: 0.016	inactive: -0.055	inactive: 0.012	inactive: -0.053
RFXANK (UniProt O14593)	inactive: -0.005	inactive: 0.022	inactive: -0.011	inactive: 0.027	inactive: -0.017	inactive: -0.017	inactive: 0.06	inactive: 0.016	inactive: 0.002	inactive: -0.034
RECQL4 (UniProt O94761)	inactive: -0.041	inactive: 0.023	inactive: -0.025	inactive: 0.195	inactive: -0.081	inactive: 0.018	inactive: -0.039	inactive: -0.035	inactive: 0.013	inactive: 0.015
RBM5 (UniProt P52756)	inactive: 0.095	inactive: -0.042	inactive: 0.054	inactive: 0.006	inactive: -0.006	inactive: 0.015	inactive: -0.121	inactive: -0.021	inactive: -0.001	inactive: -0.023
RFXAP (UniProt O00287)	inactive: -0.008	inactive: 0.003	inactive: 0.025	inactive: 0.054	inactive: 0.003	inactive: 0.002	inactive: 0.039	inactive: 0.031	inactive: 0.02	inactive: 0.03
REV3L (UniProt O60673)	inactive: 0.081	inactive: -0.176	inactive: 0.024	inactive: -0.064	inactive: -0.031	inactive: -0.013	inactive: 0.144	inactive: 0.051	inactive: 0.118	inactive: 0.045
RFT1 (UniProt Q96AA3)	inactive: -0.002	inactive: 0.096	inactive: 0.005	inactive: 0.108	inactive: 0.006	inactive: -0.018	inactive: -0.037	inactive: -0.047	inactive: 0.069	inactive: 0.001
RBM33 (UniProt Q96EV2)	inactive: 0.013	inactive: 0.059	inactive: -0.007	inactive: 0.012	inactive: -0.036	inactive: -0.028	inactive: -0.044	inactive: -0.012	inactive: 0.015	inactive: 0.031
RARS2 (UniProt Q5T160)	inactive: 0.058	inactive: 0.03	inactive: 0.107	inactive: 0.027	inactive: -0.032	inactive: -0.088	inactive: -0.1	inactive: 0.032	inactive: -0.053	inactive: 0.035
RBBP7 (UniProt Q16576)	inactive: -0.038	inactive: -0.032	inactive: -0.021	inactive: -0.005	inactive: 0.007	inactive: -0.014	inactive: -0.008	inactive: 0.045	inactive: -0.022	inactive: -0.082
REEP6 (UniProt Q96HR9)	inactive: -0.023	inactive: -0.026	inactive: 0.008	inactive: 0.077	inactive: -0.06	inactive: -0.029	inactive: -0.069	inactive: 0.021	inactive: -0.022	inactive: -0.05
RGPD5 (UniProt Q99666)	inactive: -0.084	inactive: 0.181	inactive: -0.057	inactive: -0.035	inactive: 0.02	inactive: 0.009	inactive: 0.036	inactive: -0.091	inactive: 0.063	inactive: -0.012
RBX1 (UniProt P62877)	inactive: -0.11	inactive: 0.301	inactive: 0.007	inactive: 0.036	inactive: 0.216	inactive: 0.03	inactive: 0.122	inactive: -0.008	inactive: 0.197	inactive: 0.1
RASSF5 (UniProt Q8WWW0)	inactive: -0.015	inactive: -0.143	inactive: -0.11	inactive: 0.017	inactive: -0.011	inactive: 0.025	inactive: 0.101	inactive: 0.051	inactive: 0.041	inactive: 0.019
REEP4 (UniProt Q9H6H4)	inactive: 0.009	inactive: 0.018	inactive: 0.043	inactive: 0.02	inactive: 0.043	inactive: -0.028	inactive: -0.059	inactive: -0.042	inactive: 0.058	inactive: 0.012
RCOR3 isoform 3 (UniProt Q9P2K3)	inactive: -0.033	inactive: 0.025	inactive: 0.022	inactive: 0.009	inactive: -0.006	inactive: -0.017	inactive: -0.012	inactive: -0.02	inactive: -0.015	inactive: -0.015
RCN2 isoform 2 (UniProt Q14257)	inactive: -0.055	inactive: 0.017	inactive: -0.035	inactive: 0.019	inactive: -0.015	inactive: 0.01	inactive: 0.007	inactive: 0.027	inactive: -0.042	inactive: 0.022
RDX (UniProt P35241)	inactive: -0.013	inactive: 0.017	inactive: 0.014	inactive: -0.023	inactive: -0.032	inactive: 0.018	inactive: -0.009	inactive: 0.012	inactive: -0.025	inactive: 0.006
RBBP6 (UniProt Q7Z6E9)	inactive: 0	inactive: -0.109	inactive: 0.005	inactive: -0.02	inactive: -0.016	inactive: -0.016	inactive: 0.037	inactive: 0.059	inactive: 0.006	inactive: -0.009
REPIN1 isoform 4 (UniProt Q9BWE0)	inactive: 0.059	inactive: -0.098	inactive: 0.114	inactive: -0.013	inactive: -0.041	inactive: -0.026	inactive: 0.007	inactive: -0.023	inactive: 0.072	inactive: 0.007
RERE (UniProt Q9P2R6)	inactive: 0.013	inactive: -0.058	inactive: -0.008	inactive: -0.017	inactive: -0.041	inactive: 0.008	inactive: -0.022	inactive: 0.031	inactive: -0.034	inactive: -0.039

Given as a markdown table: entries from further up

| Target | log2 fold change (erlotinib) | log2 fold change [1] | log2 fold change [2] | log2 fold change [3] | log2 fold change [4] | log2 fold change [5] | log2 fold change [6] | log2 fold change [7] | log2 fold change [8] | log2 fold change (IRAK-1-4 Inhibitor I) |
| --- | --- | --- | --- | --- | --- | --- | --- | --- | --- | --- |
| RASSF5 (UniProt Q8WWW0) | inactive: -0.015 | inactive: -0.143 | inactive: -0.11 | inactive: 0.017 | inactive: -0.011 | inactive: 0.025 | inactive: 0.101 | inactive: 0.051 | inactive: 0.041 | inactive: 0.019 |
| REEP4 (UniProt Q9H6H4) | inactive: 0.009 | inactive: 0.018 | inactive: 0.043 | inactive: 0.02 | inactive: 0.043 | inactive: -0.028 | inactive: -0.059 | inactive: -0.042 | inactive: 0.058 | inactive: 0.012 |
| RCOR3 isoform 3 (UniProt Q9P2K3) | inactive: -0.033 | inactive: 0.025 | inactive: 0.022 | inactive: 0.009 | inactive: -0.006 | inactive: -0.017 | inactive: -0.012 | inactive: -0.02 | inactive: -0.015 | inactive: -0.015 |
| RCN2 isoform 2 (UniProt Q14257) | inactive: -0.055 | inactive: 0.017 | inactive: -0.035 | inactive: 0.019 | inactive: -0.015 | inactive: 0.01 | inactive: 0.007 | inactive: 0.027 | inactive: -0.042 | inactive: 0.022 |
| RDX (UniProt P35241) | inactive: -0.013 | inactive: 0.017 | inactive: 0.014 | inactive: -0.023 | inactive: -0.032 | inactive: 0.018 | inactive: -0.009 | inactive: 0.012 | inactive: -0.025 | inactive: 0.006 |
| RBBP6 (UniProt Q7Z6E9) | inactive: 0 | inactive: -0.109 | inactive: 0.005 | inactive: -0.02 | inactive: -0.016 | inactive: -0.016 | inactive: 0.037 | inactive: 0.059 | inactive: 0.006 | inactive: -0.009 |
| REPIN1 isoform 4 (UniProt Q9BWE0) | inactive: 0.059 | inactive: -0.098 | inactive: 0.114 | inactive: -0.013 | inactive: -0.041 | inactive: -0.026 | inactive: 0.007 | inactive: -0.023 | inactive: 0.072 | inactive: 0.007 |
| RERE (UniProt Q9P2R6) | inactive: 0.013 | inactive: -0.058 | inactive: -0.008 | inactive: -0.017 | inactive: -0.041 | inactive: 0.008 | inactive: -0.022 | inactive: 0.031 | inactive: -0.034 | inactive: -0.039 |
